Measured data: PubChem BioAssay AID1259308 (NCATS, 2017)
The whole screen tested about 59,000 reagents; this is a part drawn at random. Of all reagents, about 1,510 (2.6%) were called active. 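Calls use total luciferase alone and ignore viability, so some active siRNAs may act by altering cell number.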 Reagents against one gene are numbered here. No sequences are given here.

Screen: 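Candidate targets for better recombinant protein yield in mammalian cells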 (primary screen)
System: human HEK293 embryonic kidney cells stably expressing firefly luciferase (HEK-CMV-Luc2-Hygro)
Knock-down reagent: single siRNA against human genes, 0.8 pmol siRNA per well
Duration: 72 h
Read-out: 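Luciferase light (ONE-Glo) measured on one replicate plate set and viability (CellTiter-Glo) on the other, scaled to a negative control siRNA, with robust z-scores and luciferase per cell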
Reading the numbers: total luciferase, z-score and total luciferase, % of control: higher = more reporter protein produced; luciferase per cell, z-score: higher = more reporter output per viable cell; viable cells, % of control: higher = more viable cells
Call rule: 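An siRNA counts as active if its total luciferase robust z-score exceeds 3; genes with two or more such siRNAs out of three were retested with fresh siRNAs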
Calls: active = raised luciferase; inactive = no rise

no.	Gene	reagent	total luciferase, z-score	total luciferase, % of control	luciferase per cell, z-score	viable cells, % of control	Outcome
1	CPLX2	1	-0.478	72.4	-0.438	90.8	inactive
2	CPLX2	2	-0.283	76.3	0.234	80.1	inactive
3	CPLX2	3	0.269	87.2	0.547	84.4	inactive
4	TINAGL1	1	-0.497	72	-0.961	104	inactive
5	TINAGL1	2	-1.64	49.3	-1.47	81.2	inactive
6	TINAGL1	3	-0.579	70.4	-0.124	81.2	inactive
7	OR10K1	1	1.29	108	0.476	106	inactive
8	OR10K1	2	0.181	85.5	1.17	70.2	inactive
9	OR10K1	3	0.486	91.6	0.589	87.6	inactive
10	TUBA4A	1	0.0314	82.5	-0.484	105	inactive
11	TUBA4A	2	-1.81	45.9	-1.66	79.3	inactive
12	TUBA4A	3	-0.417	73.6	-0.675	98.2	inactive
13	CARD9	1	-1.01	61.8	-0.584	80.6	inactive
14	CARD9	2	0.453	90.9	0.105	98.8	inactive
15	CARD9	3	-0.336	75.2	-0.638	99.4	inactive
16	PPP1R18	1	-1.31	55.9	-0.324	68.1	inactive
17	PPP1R18	2	0.913	100	1.01	85.8	inactive
18	PPP1R18	3	2.48	131	1.67	94.5	inactive
19	DPPA3	1	-1.18	58.4	-1.03	85.6	inactive
20	DPPA3	2	0.472	91.3	0.294	94.4	inactive
21	DPPA3	3	-0.405	73.8	-0.434	92.5	inactive
22	OPRD1	1	-0.786	66.2	-0.0689	75.4	inactive
23	OPRD1	2	-0.711	67.7	-1.03	99.2	inactive
24	OPRD1	3	-1.25	57	-1.25	88.5	inactive
25	NEK6	1	0.565	93.1	0.622	88.3	inactive
26	NEK6	2	0.223	86.3	-0.146	100	inactive
27	NEK6	3	-1.04	61.2	-0.731	82.9	inactive
28	OVCH2	1	0.304	87.9	0.34	89.8	inactive
29	OVCH2	2	-1.17	58.5	-1.19	89.6	inactive
30	OVCH2	3	-0.378	74.4	-0.52	95.3	inactive
31	OPA3	1	0.462	91.1	0.953	79.2	inactive
32	OPA3	2	2.01	122	1.85	83.6	inactive
33	OPA3	3	0.561	93	0.663	87.3	inactive
34	GPR17	1	-1.55	51	1.41	39.3	inactive
35	GPR17	2	0.365	89.2	-0.209	105	inactive
36	GPR17	3	1.93	120	2.83	63.8	inactive
37	TREML1	1	-0.0996	79.9	1.22	64.7	inactive
38	TREML1	2	-2.19	38.4	-1.65	66.3	inactive
39	TREML1	3	1.46	111	0.73	102	inactive
40	SOX14	1	-1.91	43.8	-2.36	91.1	inactive
41	SOX14	2	0.776	97.3	-0.0896	111	inactive
42	SOX14	3	1.25	107	1.5	80.4	inactive
43	IL15	1	0.817	98.1	0.625	93	inactive
44	IL15	2	0.213	86.1	0.111	93.5	inactive
45	IL15	3	1.01	102	0.888	90.2	inactive
46	RPL22P3	1	0.191	85.7	0.737	78.9	inactive
47	RPL22P3	2	0.273	87.3	0.595	83.4	inactive
48	RPL22P3	3	0.434	90.5	0.743	83.2	inactive
49	PDILT	1	0.539	92.6	0.457	91.7	inactive
50	PDILT	2	-0.41	73.7	-0.389	91.3	inactive
51	PDILT	3	-0.292	76.1	-0.929	109	inactive
52	RRP15	1	-0.848	65	-0.67	86.7	inactive
53	RRP15	2	-0.6	70	-0.0207	78.6	inactive
54	RRP15	3	-0.507	71.8	0.0833	78.5	inactive
55	NUDT12	1	0.792	97.6	0.989	84.1	inactive
56	NUDT12	2	-1.08	60.3	-1.25	93.6	inactive
57	NUDT12	3	0.0947	83.8	1.5	63.1	inactive
58	ZNF655	1	-0.832	65.3	-1.04	96	inactive
59	ZNF655	2	0.274	87.3	0.565	84.1	inactive
60	ZNF655	3	-1.45	53.1	0.306	54.7	inactive
61	SNIP1	1	-0.0155	81.6	0.173	87.1	inactive
62	SNIP1	2	-0.21	77.7	0.277	80.7	inactive
63	SNIP1	3	-0.497	72	0.838	64.5	inactive
64	EPB41L5	1	3.07	143	1.95	95.6	active
65	EPB41L5	2	-0.105	79.8	-0.437	100	inactive
66	EPB41L5	3	0.549	92.8	-0.306	112	inactive
67	PRDM13	1	-0.758	66.8	-0.328	81.4	inactive
68	PRDM13	2	-0.36	74.7	-0.532	96.1	inactive
69	PRDM13	3	1.21	106	1.39	82.1	inactive
70	MMP14	1	0.897	99.7	0.489	98	inactive
71	MMP14	2	-2.31	36	-2.5	77.8	inactive
72	MMP14	3	-0.368	74.6	0.124	80.6	inactive
73	SLC22A16	1	-1.17	58.7	-0.951	84.2	inactive
74	SLC22A16	2	-0.891	64.2	-0.365	78.9	inactive
75	SLC22A16	3	-1.58	50.5	-1.75	89.5	inactive

Taken from above.
For “luciferase per cell, z-score”, TUBA4A #1 has -0.484
For “total luciferase, % of control”, OPRD1 #2 reads 67.7
For “Outcome”, ZNF655 #1 shows inactive
TINAGL1 #3, luciferase per cell, z-score → -0.124
Under “total luciferase, % of control”, PRDM13 #3 is entered as 106
For “total luciferase, z-score”, GPR17 #2 has 0.365
